Values quoted from earlier work as cited in patent US6596499B2, “Membrane molecule indicator compositions and methods” (The Netherlands Cancer Institute, priority 2000, dated 2003).
Like-named read-outs stand apart in the source and are kept apart here. At least one structure is not confirmed: it was looked up by name or label, or the drawing left a doubt. No end group written: not given here.

What was measured:
[1] = test system: PIP2; conditions: bombesin-stimulated 3T3 cells; cited from earlier work
[2] = test system: PIP2; conditions: bovine aortic endothelial cells; cited from earlier work

| Compound | time of significant PIP2 decreases [1] | time of significant PIP2 decreases [2] |
| --- | --- | --- |
| CSCC[C@H](NC(=O)[C@H](CC(C)C)NC(=O)[C@H](Cc1cnc[nH]1)NC(=O)CNC(=O)[C@@H](NC(=O)[C@H](C)NC(=O)[C@H](Cc1c[nH]c2ccccc12)NC(=O)[C@H](CCC(N)=O)NC(=O)[C@H](CC(N)=O)NC(=O)CNC(=O)[C@H](CC(C)C)NC(=O)[C@H](CCCN=C(N)N)NC(=O)[C@H](CCC(N)=O)NC(=O)[C@@H]1CCC(=O)N1)C(C)C)C(N)=O [bombesin] | 1 min |  |
| RPPGFSPFR [BK, bradykinin] |  | ≤ 10 s |
